# Assay results taken from PubChem BioAssay AID1347076 (National Center for Advancing Translational Sciences (NCATS), 2019).
# Among all 400,000 compounds or so, about 13,000 (3.2%) were called active. Inconclusive means that the source gave no clear call. Such entries were picked first, then a sample of the others. The call rests on the fitted dose curve; in most records, active means well fitted cell-killing curve with a large enough effect; inconclusive means small, poorly fitted or top-dose-only effect, or effect the other way; inactive means flat fitted curve, though single readings scatter. Potencies beside an inconclusive call are fits to weak or partial responses and may not hold up.
# Experiment: qHTS assay for MDR1-selective chemotherapeutics: Primary screen using the drug-selected MDR subline cells KB-V1; further: nearly all actives have a fitted effect of over 60% in size
# Conditions: KB-V1 MDR cells viability, CellTiter-Glo, 72 h; activity change, negative = cytotoxicity: at 46.1 µM (top of the series)
# In short: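 Compound-treated KB-V1 multidrug-resistant cells, 72 h, 37 degrees C; viability by CellTiter-Glo. Fitted qHTS curves give the values.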
# On the % scale 0 is the no-effect control and ±100 the full control effect; potency means the concentration at half of the fitted maximal effect.
SMILES,Potency,"activity change, negative = cytotoxicity"
CC1CCCN(CCCNC(=O)CN2C(=O)CSc3ccc(S(=O)(=O)N4CCOCC4)cc32)C1 (configuration not stated),"inconclusive: 4.11 µM [rising, full curve, poor fit]",–
CCOC(=O)c1[nH]c(C)c(C(=O)OCC(=O)NC(C)c2ccc(F)cc2)c1C (configuration not stated),–,inactive: -15.8%
CCN(CC(=O)Nc1ccc(NC(C)=O)cc1)C(=O)c1ccccc1CCc1ccccc1,"inconclusive: 8.2 µM [cytotoxic, partial curve]",–
COc1ccc(N(CC(=O)NCCSCc2ccccc2Cl)S(C)(=O)=O)cc1Cl,–,inactive: 2.84%
CC(NC(=O)c1cc2c(s1)CS(=O)(=O)C2)c1ccccc1 (configuration not stated),"inconclusive: 0.82 µM [rising, full curve]",–
O=C(Cn1c(=O)oc2cc(S(=O)(=O)NC3CCCC3)ccc21)Nc1ccc(F)c(F)c1,–,inactive: 1.63%
Cc1cc(C)n(CCNS(=O)(=O)c2ccc(C)c(C)c2)n1,"inconclusive: 16.4 µM [cytotoxic, single point]",–
COc1ccc(C(=O)NCC(C)(C)CNC(=O)c2ccc(OC)cc2)cc1,"inconclusive: 2.31 µM [cytotoxic, partial curve, poor fit]",–
CC1(C)Cc2c(c(N3CCCCC3)[nH]c(=S)c2C#N)CS1,active: 11.6 µM,–
COc1cccc(CNc2nc3cc(-c4cccc(Cl)c4)sc3c(=O)n2C)c1OC,active: 8.2 µM,–
O=C(Nc1cc(C(F)(F)F)ccc1Cl)c1ccc(NC(=O)C(F)(F)F)cc1,–,inactive: -4.95%
COC(=O)N1C(=O)[C@@](c2ccccc2)(C2CCCC2)N1C(=O)OC,"inconclusive: 8.2 µM [cytotoxic, partial curve, poor fit]",–
O=C(Cn1ncc2c3ccccc3n(Cc3ccccc3F)c2c1=O)NCCCN1CCCC1=O,"inconclusive: 18.4 µM [cytotoxic, single point]",–
O=C(Nc1cccc(F)c1)NC1CCCCCCC1,"inconclusive: 16.4 µM [cytotoxic, partial curve, poor fit]",–
O=C(c1ccccc1)c1cccn1CC(=O)N1CCc2ccccc2C1,"inconclusive: 18.4 µM [cytotoxic, single point]",–
O=C(CSc1nnc(-c2ccccc2)n1-c1ccc(Cl)cc1)NNC(=S)Nc1ccccc1,–,inconclusive: 33.7%
N#Cc1ccccc1OCC(=O)Nc1ccc2c(c1)OCCO2,"inconclusive: 23.1 µM [cytotoxic, single point]",–
Cc1cccc(N2CCN(C3(c4ccccc4)C(=O)c4ccccc4C3=O)CC2C)c1 (configuration not stated),"inconclusive: 29.1 µM [cytotoxic, single point]",–
Cc1ccc(C)c(NC(=S)N/N=C2/CCCCc3ccccc32)c1,"inconclusive: 2.91 µM [cytotoxic, full curve]",–
O=C(c1ccco1)N1CCN(c2ncnc3scc(-c4cccs4)c23)CC1,"inconclusive: 18.4 µM [cytotoxic, single point]",–
CCCc1cc2c(-c3ccccc3)cc(=O)oc2cc1OCc1ccc(C(=O)O)o1,–,inactive: 16.3%
Cn1c(=O)c2c(nc3n2CCCN3CCc2ccccc2)n(C)c1=O,"inconclusive: 0.0065 µM [rising, full curve]",–
CCN(Cc1ccccc1)C(c1ccc(Cl)cc1)c1nnnn1C(C)(C)C (configuration not stated),"inconclusive: 18.4 µM [cytotoxic, partial curve, poor fit]",–

SMILES,Potency,"activity change, negative = cytotoxicity"
Cc1ccc(-c2cc(C(=O)NCC(c3ccccc3)N(C)C)c3ccccc3n2)o1 (configuration not stated),–,inactive: -8.2%
COc1cccc(C(c2sc3nc(C)nn3c2O)N2CCc3ccccc3C2)c1 (configuration not stated),–,inactive: 1.07%
CC1CCN(S(=O)(=O)c2cccc(C(=O)N(Cc3ccccc3)c3ccccn3)c2)CC1,"inconclusive: 23.1 µM [cytotoxic, single point]",–
CCc1cccc2c(C(=O)C(NCCCOC)c3ccccc3)c[nH]c12 (configuration not stated),–,inactive: -0.689%
COc1cccc(C2CC(=O)Nc3c2c(=O)nc2c(C)cccn32)c1OC (configuration not stated),"inconclusive: 29.1 µM [rising, single point]",–
C/C(=N\NC(=O)CC(C)C)c1c(C(F)(F)F)[nH]n(-c2nc3ccccc3s2)c1=O,"inconclusive: 6.51 µM [cytotoxic, partial curve]",–
O=C1C=C(/C=C/c2ccccc2)C[C@@H](c2ccc3c(c2)OCO3)C1,–,inactive: 9.76%
CCCN(CC(=O)Nc1ccccc1OC)C(=O)C1CCCC1,"inconclusive: 18.4 µM [cytotoxic, single point]",–
CC[C@]12c3[nH]c4ccc(OC)cc4c3CCN1C(=O)C(CC(=O)NCc1cccc(C(F)(F)F)c1)C[C@@H]2C(=O)N1CCN(C(=O)c2ccco2)CC1 (some centres not stated),"inconclusive: 10.3 µM [rising, partial curve]",–
COc1ccc(CCNC(=O)COc2ccc(S(=O)(=O)NC3CCCCC3)cc2Cl)cc1,active: 14.6 µM,–
CCOC(=O)c1ccc(NC(=O)CN2C(=O)COc3ccc(Cl)cc32)cc1,"inconclusive: 29.1 µM [rising, single point]",–
CC(NC(=O)c1cccs1)C(c1cccs1)N1CCN(Cc2ccccc2)CC1 (configuration not stated),"inconclusive: 23.1 µM [cytotoxic, partial curve, poor fit]",–
O=S(=O)(NCc1ccc(Cl)cc1)c1cccc2cccnc12,"inconclusive: 20.6 µM [cytotoxic, single point]",–
O=C(CCOc1ccccc1)Nc1ccnn1C1CCN(CCc2ccccc2)CC1,–,inactive: -5.21%
COc1ccc(N(Cc2cc3ccccc3[nH]c2=O)S(C)(=O)=O)cc1,active: 16.4 µM,–
c1ccc2c3c([nH]c2c1)C(C1CCCCC1)N(Cc1ncc[nH]1)CC3 (configuration not stated),–,inactive: 2.26%
O=C(CC1C(=O)NCCN1C(=O)Nc1ccccc1)Nc1cccc(C(F)(F)F)c1 (configuration not stated),"inconclusive: 16.4 µM [rising, single point]",–
COc1ccccc1-n1cnc2cc(NCc3ccccc3O)ccc21,"inconclusive: 14.6 µM [cytotoxic, partial curve]",–
CCOc1cc(C(=S)N2CCOCC2)ccc1OS(=O)(=O)c1ccccc1[N+](=O)[O-],"inconclusive: 23.1 µM [cytotoxic, single point]",–
O=c1c([N+](=O)[O-])c(N2CCOCC2)c2ccccc2n1Cc1ccccc1,"inconclusive: 23.1 µM [cytotoxic, partial curve]",–
COc1ccccc1OCCOC(=O)Nc1ccccc1,"inconclusive: 20.6 µM [cytotoxic, partial curve, poor fit]",–
COc1ccc(NC(=O)C2=CC=CN3CCS(=O)(=O)N=C23)c(OC)c1,–,inactive: 24.6%
COc1ccc(N2CCc3c(C)nc4c(OC)cc(OC)cc4c32)c(OC)c1,"inconclusive: 18.4 µM [cytotoxic, single point]",–

SMILES,Potency,"activity change, negative = cytotoxicity"
N#C/C(=C\c1ccc(F)c(Cl)c1)S(=O)(=O)c1ccccn1,–,inactive: 20.2%
Cc1cc(C)c(NC(=O)CSc2nc3ccccc3c(=O)n2CCCN2CCOCC2)c(C)c1,–,inactive: 12.8%
Cc1ccc(C(=O)COC(=O)c2cccc(N3C(=O)c4c(C)nc5ccccc5c4C3=O)c2)cc1C,"inconclusive: 29.1 µM [rising, partial curve, poor fit]",–
Cc1cccc(C(=O)Nc2ccccc2SCc2cc(=O)c3cccc(C)c3[nH]2)c1,–,inactive: 6.66%
COc1ccc(N2CCCC2=N)c(OC)c1,–,inactive: 18.1%
O=C(Nc1ccncc1)c1cccc(S(=O)(=O)N2CCc3ccccc32)c1,"inconclusive: 18.4 µM [cytotoxic, single point]",–
c1ccc(-c2cc(NCCN3CCCCC3)c3ccccc3n2)cc1,"inconclusive: 13 µM [cytotoxic, partial curve, poor fit]",–
O=C(c1sc2ccccc2c1Cl)N1CCN(CCc2ccccn2)CC1,"inconclusive: 29.1 µM [cytotoxic, single point]",–
CC(C)n1c(/C=C/[C@H](O)C[C@H](O)CC(=O)O)c(-c2ccc(F)cc2)c2ccccc21,"inconclusive: 16.4 µM [cytotoxic, single point]",–
CN1CCN(c2ccc(S(=O)(=O)Nc3ccccc3)cc2[N+](=O)[O-])CC1,"inconclusive: 20.6 µM [cytotoxic, partial curve, poor fit]",–
Cc1ccc(Cn2c(=O)n(Cc3ccccc3Cl)c(=O)c3ccccc32)cc1,"inconclusive: 29.1 µM [rising, single point]",–
CC1CC(C)CN(C(=O)COC(=O)c2cc([N+](=O)[O-])ccc2N2CCOCC2)C1 (configuration not stated),"inconclusive: 7.31 µM [cytotoxic, partial curve]",–
Cc1ccc(Cl)cc1N1CCN(C(=O)C2CCN(Cc3nc(-c4cccc(Cl)c4)oc3C)CC2)CC1,"inconclusive: 29.1 µM [cytotoxic, single point]",–
COc1ccccc1C(=O)NCCC(=O)Nc1cccc(S(=O)(=O)N2CCCC2)c1,–,inactive: 17.6%
O=S(=O)(Nc1ccc(-n2cnnn2)cc1)c1ccccc1F,"inconclusive: 18.4 µM [cytotoxic, partial curve]",–
O=C(NCCCNC(=O)c1ccccc1Cl)c1cnccn1,–,inactive: 0.177%
COc1ccc(OCCn2c(CCNC(=O)C3CCCCC3)nc3ccccc32)cc1,–,inactive: 1.93%
CCCCn1c(SCC(=O)Nc2cc(C(F)(F)F)ccc2Cl)nnc1C(CC)N(C)C (configuration not stated),"inconclusive: 7.31 µM [cytotoxic, partial curve, poor fit]",–
CC1=C([N+](=O)[O-])C(c2ccccc2)C2=C(N1)c1ccccc1C2=O (configuration not stated),active: 4.61 µM,–
COc1ccc(CC(=O)Nc2cccc(C)n2)cc1OC,"inconclusive: 14.6 µM [cytotoxic, partial curve, poor fit]",–
O=C(CN1CCc2cc3c(cc2C1)OCCCO3)Nc1ccc(F)cc1,"inconclusive: 2.31 µM [cytotoxic, full curve]",–

# One compound at a time, from the list above. Values in the order: Potency | activity change, negative = cytotoxicity
# c1ccc(-c2cc(NCCN3CCCCC3)c3ccccc3n2)cc1 reads inconclusive: 13 µM [cytotoxic, partial curve, poor fit] | –
# COc1ccc(OCCn2c(CCNC(=O)C3CCCCC3)nc3ccccc32)cc1 reads – | inactive: 1.93%
